Measurements reported in PubChem BioAssay AID272 (DTP/NCI, 2004).
The list shows only some results of the screen, not a fair sample: it is rich in T/C values a quarter to a half above the control, in often repeated tests (any T/C) and in doses without a T/C. Further doses and runs are listed elsewhere. T/C is the treated group as % of the vehicle group. Some doses have a count of surviving animals in place of a T/C: the source holds a T/C of zero for them, seemingly a mark for toxic or unscored doses. Some doses without a T/C left all or most animals alive at the check, yet need not have been tolerated: survival well below the control is almost never listed, so the zero probably covers shortened survival too. Counts of survivors are from the toxicity check (mostly the fifth day) where no day follows; animals may have died later. Schedules are NCI's codes, read here as Q, the interval in days (D) or hours (H), X, the number of doses. Some entries were tested several times; the results are listed from low to high. Marks such as (2×) give the number of equal values in this list. For survival time, the PubChem record calls one and a half times the control and up active, and a quarter to a half above the control has no call in these data; cut-offs in other NCI protocols can differ. Some T/C values carry the count of animals alive at the toxicity check (mostly the fifth day); without a count, all were alive then.

System: Lewis lung carcinoma i.m., BDF1 mice, T/C %
Experiment: NCI In Vivo Anticancer Drug Screen. Data for tumor model Lewis Lung Carcinoma (intramuscular) in B6D2F1 (BDF1) mice
How it was run: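 Transplantable tumour model; readout survival or tumour size; value = treated (T) / vehicle control (C).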

[1] = T/C endpoint: median survival time, dose: 4.0 mg/kg/injection, schedule: Q01DX011 (ip), vehicle: water, higher T/C = longer survival
[2] = T/C endpoint: median survival time, dose: 8.0 mg/kg/injection, schedule: Q01DX011 (ip), vehicle: water, higher T/C = longer survival

Structure (SMILES): S=c1nc[nH]c2nc[nH]c12
- survivor count (T/C endpoint: mean tumor weight, dose: 65.0 mg/kg/injection, schedule: Q01DX011 (ip), vehicle: other, higher T/C = larger tumour): 3 of 8
- survivor count (T/C endpoint: mean tumor weight, dose: 108.0 mg/kg/injection, schedule: Q01DX011 (ip), vehicle: other, higher T/C = larger tumour): 3 of 8 and 5 of 8
- T/C (T/C endpoint: median survival time, dose: 16.0 mg/kg/injection, schedule: Q01DX011 (ip), vehicle: other, higher T/C = longer survival): 125 % of control
- survivor count (T/C endpoint: median survival time, dose: 32.0 mg/kg/injection, schedule: Q01DX011 (ip), vehicle: other, higher T/C = longer survival): 10 of 10
- survivor count (T/C endpoint: median survival time, dose: 39.0 mg/kg/injection, schedule: Q01DX011 (ip), vehicle: other, higher T/C = longer survival): 6 of 8, 7 of 8, 8 of 8
- survivor count (T/C endpoint: median survival time, dose: 40.0 mg/kg/injection, schedule: Q01DX011 (ip), vehicle: other, higher T/C = longer survival): 7 of 8
- survivor count (T/C endpoint: median survival time, dose: 64.0 mg/kg/injection, schedule: Q01DX011 (ip), vehicle: other, higher T/C = longer survival): 5 of 10 and 7 of 10
- survivor count (T/C endpoint: median survival time, dose: 65.0 mg/kg/injection, schedule: Q01DX011 (ip), vehicle: other, higher T/C = longer survival): 1 of 8, 3 of 8, 7 of 8
- survivor count (T/C endpoint: median survival time, dose: 80.0 mg/kg/injection, schedule: Q01DX011 (ip), vehicle: other, higher T/C = longer survival): 0 of 8
- survivor count (T/C endpoint: median survival time, dose: 108.0 mg/kg/injection, schedule: Q01DX011 (ip), vehicle: other, higher T/C = longer survival): 0 of 8, 3 of 8, 5 of 8
- survivor count (T/C endpoint: median survival time, dose: 180.0 mg/kg/injection, schedule: Q01DX011 (ip), vehicle: other, higher T/C = longer survival): 0 of 8 (3×)

Structure (SMILES): COc1cccc2c1C(=O)c1c(O)c3c(c(O)c1C2=O)C[C@@](O)(C(=O)CO)C[C@@H]3OC1CC(N)C(O)C(C)O1 (stereo partly drawn)
- T/C (T/C endpoint: median survival time, dose: 0.5 mg/kg/injection, schedule: Q01DX011 (ip), vehicle: water, evaluated on day 12, higher T/C = longer survival): 100 % of control
- T/C (T/C endpoint: median survival time, dose: 0.5 mg/kg/injection, schedule: Q01DX011 (ip), vehicle: water, evaluated on day 40, higher T/C = longer survival): 102 % of control [7 of 8 alive]
- T/C (T/C endpoint: median survival time, dose: 0.5 mg/kg/injection, schedule: Q01DX011 (ip), vehicle: water, evaluated on day 48, higher T/C = longer survival): 100 and 116 % of control
- T/C (T/C endpoint: median survival time, dose: 1.0 mg/kg/injection, schedule: Q01DX011 (ip), vehicle: water, evaluated on day 12, higher T/C = longer survival): 111 % of control
- T/C (T/C endpoint: median survival time, dose: 1.0 mg/kg/injection, schedule: Q01DX011 (ip), vehicle: water, evaluated on day 40, higher T/C = longer survival): 115 % of control
- T/C (T/C endpoint: median survival time, dose: 1.0 mg/kg/injection, schedule: Q01DX011 (ip), vehicle: water, evaluated on day 48, higher T/C = longer survival): 96 and 134 % of control
- T/C (T/C endpoint: median survival time, dose: 1.08 mg/kg/injection, schedule: Q03HX008 (ip), vehicle: water, higher T/C = longer survival): 128 % of control [7 of 8 alive]
- survivor count (T/C endpoint: median survival time, dose: 1.8 mg/kg/injection, schedule: Q03HX008 (ip), vehicle: water, higher T/C = longer survival): 0 of 8
- T/C (T/C endpoint: median survival time, dose: 2.0 mg/kg/injection, schedule: Q01DX011 (ip), vehicle: water, evaluated on day 12, higher T/C = longer survival): 42 % of control
- T/C (T/C endpoint: median survival time, dose: 2.0 mg/kg/injection, schedule: Q01DX011 (ip), vehicle: water, evaluated on day 48, higher T/C = longer survival): 100 % of control [8 of 10 alive]
- survivor count (T/C endpoint: median survival time, dose: 2.0 mg/kg/injection, schedule: Q01DX011 (ip), vehicle: water, higher T/C = longer survival): 1 of 8 and 10 of 10
- survivor count (T/C endpoint: median survival time, dose: 3.0 mg/kg/injection, schedule: Q03HX008 (ip), vehicle: water, higher T/C = longer survival): 0 of 8
- T/C [1]: 30 % of control
- survivor count [1]: 0 of 10, 0 of 8, 3 of 10
- T/C [2]: 27 % of control
- survivor count [2]: 0 of 10 and 0 of 8

Structure (SMILES): CCCCCCCCCCCCCCCCCC[n+]1cccc(C(=O)N2CCOCC2)c1
- survivor count (T/C endpoint: mean tumor weight (est.), dose: 32.0 mg/kg/injection, schedule: Q01DX011 (ip), vehicle: saline, higher T/C = larger tumour): 3 of 8
- survivor count (T/C endpoint: median survival time, dose: 32.0 mg/kg/injection, schedule: Q01DX011 (ip), vehicle: saline, higher T/C = longer survival): 3 of 8

Structure (SMILES): CN(Cc1ccccc1)/N=N/c1nc[nH]c1C(N)=O
- survivor count (T/C endpoint: mean tumor weight, dose: 100.0 mg/kg/injection, schedule: Q01DX011 (ip), vehicle: saline, higher T/C = larger tumour): 5 of 8
- survivor count (T/C endpoint: median survival time, dose: 100.0 mg/kg/injection, schedule: Q01DX011 (ip), vehicle: saline, higher T/C = longer survival): 5 of 8
- survivor count (T/C endpoint: median survival time, dose: 200.0 mg/kg/injection, schedule: Q01DX011 (ip), vehicle: saline, higher T/C = longer survival): 0 of 8
- survivor count (T/C endpoint: median survival time, dose: 400.0 mg/kg/injection, schedule: Q01DX011 (ip), vehicle: saline, higher T/C = longer survival): 0 of 8
